Experimental data reported in publication PMC3673990, “Physicochemical Characterization of a Thermostable Alcohol Dehydrogenase from Pyrobaculum aerophilum” (PLoS ONE, 2013).
Counter-ions that a name gives are not always drawn.

Sequences of proteins named here, by UniProt entry; tags and fusion partners are left off.
UniProt Q8ZUP0, entry or part of it: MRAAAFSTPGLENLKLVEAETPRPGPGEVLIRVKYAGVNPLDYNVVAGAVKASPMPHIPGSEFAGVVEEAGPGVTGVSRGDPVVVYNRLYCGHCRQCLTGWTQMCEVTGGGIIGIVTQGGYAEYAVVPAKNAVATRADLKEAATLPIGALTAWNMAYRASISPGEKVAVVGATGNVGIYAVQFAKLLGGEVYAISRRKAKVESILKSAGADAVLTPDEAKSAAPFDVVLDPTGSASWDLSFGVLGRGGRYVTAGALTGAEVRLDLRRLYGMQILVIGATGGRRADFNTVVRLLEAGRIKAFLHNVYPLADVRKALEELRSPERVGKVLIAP

Experiments:
[1] = biological target: T1, PyAeADHII (Pyrobaculum aerophilum, UniProt Q8ZUP0); design: gene PAE2687; details: 70 °C, 260 nM enzyme, 80–1200 µM flunarizine dihydrochloride, 3 mM alpha-tetralone, 0.3 mM NADPH, 50 mM sodium phosphate pH 7.5
[2] = biological target: T1, PyAeADHII; assay: biochemical; design: gene PAE2687

Fc1ccc(C(c2ccc(F)cc2)N2CCN(C/C=C/c3ccccc3)CC2)cc1 [flunarizine dihydrochloride]
% inhibition [1]: 50–70% | IC50 [2]: ~40 µM
